The record followed here is patent publication US10858410B2, “Glycosylated peptides with pseudoproline residues and having enhanced half-lives and ability to cross the blood brain barrier” (ARIZONA BOARD OF REGENTS ON BEHALF OF THE UNIVERSITY OF …, priority 2015, dated 2020).

In this experiment the target is T1, human PAC1 receptors (Homo sapiens, UniProt P41586).
T1 construct: host or cells: CHO (clonal line PAC1-CHO)
T1 sequence (P41586 21-468): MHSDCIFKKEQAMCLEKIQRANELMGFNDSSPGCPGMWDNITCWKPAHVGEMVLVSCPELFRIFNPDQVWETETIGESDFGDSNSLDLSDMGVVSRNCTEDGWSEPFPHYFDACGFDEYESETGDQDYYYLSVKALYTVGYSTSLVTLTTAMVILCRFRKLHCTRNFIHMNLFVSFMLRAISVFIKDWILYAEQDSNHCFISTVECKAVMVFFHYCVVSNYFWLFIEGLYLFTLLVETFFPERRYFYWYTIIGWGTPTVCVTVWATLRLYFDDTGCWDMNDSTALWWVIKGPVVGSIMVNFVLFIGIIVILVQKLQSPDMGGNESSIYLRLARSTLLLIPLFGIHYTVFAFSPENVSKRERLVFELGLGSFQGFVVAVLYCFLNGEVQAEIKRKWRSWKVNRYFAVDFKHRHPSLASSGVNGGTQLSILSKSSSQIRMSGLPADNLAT
The experiment can be described thus: FLIPR calcium flux, agonist mode, PAC1-CHO cells. The class given is cell-based.

`CC[C@H](C)[C@H](NC(=O)CNC(=O)[C@H](CC(=O)O)NC(=O)[C@H](CO)NC(=O)[C@@H](N)Cc1c[nH]cn1)C(=O)N[C@@H](Cc1ccccc1)C(=O)N[C@H](C(=O)N[C@@H](CC(=O)O)C(=O)N[C@@H](CO)C(=O)N[C@@H](Cc1ccc(O)cc1)C(=O)N[C@@H](CO)C(=O)N[C@@H](CCCNC(=N)N)C(=O)N[C@@H](Cc1ccc(O)cc1)C(=O)N[C@@H](CCCNC(=N)N)C(=O)N[C@@H](CCCCN)C(=O)N[C@@H](CCC(N)=O)C(=O)N[C@@H](CCSC)C(=O)N[C@@H](C)C(=O)N[C@H](C(=O)N[C@@H](CCCCN)C(=O)N[C@@H](CCCCN)C(=O)N[C@@H](Cc1ccc(O)cc1)C(=O)N[C@@H](CC(C)C)C(=O)N[C@@H](C)C(=O)N[C@@H](C)C(=O)N[C@H](C(=O)N[C@@H](CO[C@@H]1O[C@H](CO)[C@@H](O)[C@H](O)[C@H]1O)C(N)=O)C(C)C)C(C)C)[C@@H](C)O` [PACAP1-27-S-G]: the “agonist activity at PAC1 (in words)” value is on record as “potent, efficacious agonist activity”.
